The structures appear in SMILES notation. The list shows a part of the results. These are further read-outs of the screen, such as a control signal, another cell line or another target. No call is given for them. Compounds called inactive in the main read-out are mostly missing here. Words in brackets tell the shape of the fitted curve; partial curves, single points and poor fits give uncertain potencies.

A short description of the test: qHTS Assay for Lipid Storage Modulators in Drosophila S3 Cells.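 For cell number change: cells counted by Cell Tracker Red CMTPX staining in the red channel.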 Particulars: BODIPY lipid droplet fluorescence, 18-24 h; for cell number change: measured here: cell count max response, cells fed with added oleic acid. In a few lines: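 Drosophila S3 cells loaded with oleic acid (400 uM, as added) and compounds at several concentrations; lipid droplets imaged by 488-nm laser-scanning cytometry, 500–530 nm intensity and object ratio to cell channel. Percent activity normalized to 20 uM Triacsin C.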

The mark [1] stands for this setting: measured here: lipid fluorescence (Fed channel) AC50, cells fed with added oleic acid.
Where [2] appears, read: measured here: cell number channel AC50, cells fed with added oleic acid.

On to `CCCCn1c2ccc(F)cc2c2nnc(NN)nc21`, for which the cell number change is 27.1%.
For `Cn1c(C(=O)N2CCCC2)cc2c(=O)n(C)c3ccccc3c21`, the cell number change came out at 2.98%. Also, the AC50 under setting [1] is 18.4 µM [rising, single point].
`O=c1[nH]c2cc3c(cc2cc1CN(Cc1cccs1)Cc1nnnn1Cc1ccco1)OCCO3`: the cell number change was -13.3%. Under setting [1], the half-maximal activity concentration (AC50) is 6.51 µM [rising, single point].
As for `CN(C(=O)CSc1cn(CC(=O)N2CCOCC2)c2ccccc12)c1ccccc1`, the half-maximal activity concentration (AC50) under setting [1] is 6.51 µM [falling, single point].
On to `CCN(CC)c1ccc(NC(=O)CSc2nc(C3CC3)nc3ccccc23)cc1C`, for which the cell number change is -8.7%. For the same compound, the AC50 under setting [1] is 2.91 µM [rising, single point].
For `CCCCCCCC(=O)NC1=NC(=O)C(C)(C)S1`, the cell number change was -24.8%. Also, the half-maximal activity concentration (AC50) under setting [2] was 0.461 µM [falling, full curve, poor fit].
As for `Nc1nc(NCCOCCO)nc(NCC2CCCO2)c1[N+](=O)[O-]` (configuration not stated), the cell number change turned out to be 2.14%. Under setting [1], the AC50 was 1.46 µM [falling, full curve, poor fit].
Turning to `COc1ccc(OCC(=O)N2CCCC(CO)(CCOc3ccccc3)C2)cc1` (configuration not stated), the cell number change stood at 4.01%. In addition, the concentration at half-maximal activity (AC50) under setting [1] was 0.82 µM [rising, partial curve, poor fit].
`CC(=O)Oc1ccc(C(=O)[C@H]2[C@H]3C(=O)N(c4ccccc4)C(=O)[C@H]3[C@@H]3C=CC=NN32)cc1`: the cell number change was -2.01%.
On the same count and under the same terms, to `COc1ccc(NC(=O)C(NS(=O)(=O)c2cccs2)C(C)C)cc1Cl` (configuration not stated) belongs 20%.
Take `COc1ccc(C(=O)OCC2CC(c3ccccc3)N(C)O2)cc1` (configuration not stated): the cell number change is -23%. Moreover, the AC50 under setting [1] was 0.13 µM [falling, full curve, poor fit].
Turning to `CCOC(=O)[C@H]1[C@H]2COc3ccc(OC)cc3[C@@H]2N2C(=O)c3cc(OC)c(OC)cc3NC(=O)[C@@]12C`, the AC50 under setting [1] was 8.2 µM [falling, partial curve, poor fit].
In the case of `Cc1cc2nc(C(F)(F)F)cc(-c3cccs3)n2n1`, the AC50 runs as follows: under setting [2], 2.59 µM [rising, partial curve]; under setting [1], 3.66 µM [rising, full curve].
Turning to `O=C(CN1C(=O)NC2(CCCc3ccccc32)C1=O)NCc1ccco1` (configuration not stated), the cell number change was 8.68%. Moreover, the AC50 under setting [1] was 0.00517 µM [falling, full curve, poor fit].
Turning to `O=C1C2C(C(=O)N1/N=C/c1cc([N+](=O)[O-])c(O)cc1O)C1C=CC2C12CC2` (configuration not stated), the cell number change is -24.2%. Also, the AC50 under setting [1] is 0.13 µM [falling, full curve].
As to `CN(Cc1ccccc1)C(=O)c1[nH]cnc1C(=O)Nc1ccon1`, the cell number change came to 10.9%. Also, under setting [1], the AC50 was 0.326 µM [rising, full curve, poor fit].
With `Cc1cccc(NC(=O)c2cc(-c3cc(C)cc(C)c3O)n[nH]2)c1`, the cell number change is -49.1%. For the same compound, the concentration at half-maximal activity (AC50) under setting [2] is 25.9 µM [falling, partial curve]. Moreover, the concentration at half-maximal activity (AC50) under setting [1] was 29.1 µM [falling, single point].
With `CC(=O)CCc1ccc(OCCCCN2CCC(Cc3ccccc3)CC2)cc1`, the cell number change was -18.9%. For the same compound, the AC50 under setting [2] was 0.282 µM [falling, full curve, poor fit].
As for `Cc1ccc(OCC(=O)NC2CC(C)(C)NC(C)(C)C2)cc1C`, the cell number change stood at 5.25%.
As for `CCOc1ccccc1CN1CCN(Cc2ccc(C)o2)CC1CCO` (configuration not stated), the cell number change was -19.2%. Under setting [2], the half-maximal activity concentration (AC50) is 0.731 µM [falling, full curve]. In addition, the AC50 under setting [1] was 18.4 µM [falling, single point].
For the compound `CC(C)(C)OC(=O)NCCCCCc1nnc(SCC(N)=O)o1`, the cell number change was -10.7%.
Take `CCOC(=O)c1ccccc1NC(=O)C1CCN(c2ncnc3sc(C)c(C)c23)CC1`: the cell number change was 18.3%. In addition, under setting [2], the AC50 was 0.92 µM [rising, full curve, poor fit]. The AC50 under setting [1] is 1.3 µM [rising, full curve].
For the compound `CCOc1ccccc1NC(=O)c1cccc2c1C(=O)N(CCOC)C2`, the cell number change is 27.4%.
In the case of `Cc1ccc2c(CC(=O)Nc3ccc(N4CCN(C)CC4)cc3C)coc2c1`, the cell number change is -4.26%. The concentration at half-maximal activity (AC50) under setting [1] was 1.84 µM [rising, partial curve, poor fit].
As for `Nn1c(SCC(=O)NCCCc2ccccc2)nnc1-c1cccnc1`, the cell number change was 5.55%. The AC50 under setting [2] is 6.51 µM [falling, single point]. Besides, under setting [1], the AC50 is 6.51 µM [falling, single point].
As for `COc1cccc2sc(NC(=O)c3ccc(Br)s3)nc12`, the cell number change was -19.7%. For the same compound, the AC50 under setting [1] was 16.4 µM [falling, single point].
With `O=C(CN1C(=O)C2CC=CCC2C1=O)Nc1cc(C(F)(F)F)ccc1N1CCCC1` (configuration not stated), the cell number change was found to be 22.1%.
Regarding `CCN(CC)S(=O)(=O)c1ccc(OC)c(NC(=O)c2ccc3c(c2)OCO3)c1`, the cell number change stood at 71.3%. The AC50 under setting [2] is 29.1 µM [rising, single point].
For the compound `CCOC(=O)c1cc2c(=O)n3ccccc3nc2n(CC(C)C)c1=NC(=O)c1c(-c2c(F)cccc2Cl)noc1C`, the cell number change was 4.07%. Moreover, the AC50 under setting [1] was 6.51 µM [falling, single point].
For the compound `Cc1cccc(C)c1OCCCN1CCOCC1`, the cell number change was determined as 11.1%.
Turning to `CCOC(=O)c1ccccc1NC(=O)COC(=O)C(CCSC)NC(=O)COc1ccccc1` (configuration not stated), the concentration at half-maximal activity (AC50) under setting [2] is 2.59 µM [rising, single point].
`CC(NC(=O)CNC(=O)C1CCCCC1)c1cccc(Cl)c1` (configuration not stated): the cell number change was found to be 5.65%. Further, under setting [1], the concentration at half-maximal activity (AC50) was 0.82 µM [rising, full curve].
As to `CNc1c([N+](=O)[O-])cnn1-c1ccc(F)cc1`, the cell number change was -5.15%. In addition, the AC50 under setting [1] is 18.4 µM [rising, single point].
On to `Cc1cccc(-n2c(C)cc(C(=O)NC3CCCCC3)c2C)c1`, for which, under setting [1], the AC50 is 14.6 µM [falling, partial curve].
For `Cc1cccc(Nc2nc(N)nc(CC(=O)CSc3ccc(Cl)cc3)n2)c1`, the cell number change was found to be 23.7%. Moreover, the AC50 under setting [2] is 0.259 µM [rising, full curve, poor fit]. Besides, under setting [1], the AC50 was 0.366 µM [rising, full curve, poor fit].
`CCOc1cc(/C=C(\C#N)C(=O)Nc2cccc(C(=O)O)c2)ccc1OCc1ccccc1Cl`: the cell number change was -16.1%. Besides, the concentration at half-maximal activity (AC50) under setting [2] is 6.51 µM [falling, single point]. Besides, the AC50 under setting [1] is 29.1 µM [falling, single point].
Regarding `COc1ccc([C@H]2Oc3cc(O)cc(O)c3C(=O)C2[C@@H]2C(=O)c3c(O)cc(O)cc3O[C@@H]2c2ccc(OC)cc2)cc1` (some centres not stated), the cell number change was -68.8%. For the same compound, under setting [2], the half-maximal activity concentration (AC50) is 29.1 µM [falling, single point]. For the same compound, under setting [1], the AC50 was 29.1 µM [falling, single point].
Turning to `Cc1ccc(C(C(=O)NC2CCCC2)N2CCCC(C)C2)cc1` (configuration not stated), the cell number change was -14.8%. In addition, the concentration at half-maximal activity (AC50) under setting [2] is 3.26 µM [falling, single point]. Under setting [1], the AC50 was 2.31 µM [falling, single point].

What is called AC50 is the midpoint of the concentration-response curve, whichever way the signal moves. Read a high AC50 as activity only at high concentration.
